Results on 2 substances are retold here after paper PMC5739749.

By UniProt entry, the sequences of proteins in these tests, tags left out.
UniProt P54098: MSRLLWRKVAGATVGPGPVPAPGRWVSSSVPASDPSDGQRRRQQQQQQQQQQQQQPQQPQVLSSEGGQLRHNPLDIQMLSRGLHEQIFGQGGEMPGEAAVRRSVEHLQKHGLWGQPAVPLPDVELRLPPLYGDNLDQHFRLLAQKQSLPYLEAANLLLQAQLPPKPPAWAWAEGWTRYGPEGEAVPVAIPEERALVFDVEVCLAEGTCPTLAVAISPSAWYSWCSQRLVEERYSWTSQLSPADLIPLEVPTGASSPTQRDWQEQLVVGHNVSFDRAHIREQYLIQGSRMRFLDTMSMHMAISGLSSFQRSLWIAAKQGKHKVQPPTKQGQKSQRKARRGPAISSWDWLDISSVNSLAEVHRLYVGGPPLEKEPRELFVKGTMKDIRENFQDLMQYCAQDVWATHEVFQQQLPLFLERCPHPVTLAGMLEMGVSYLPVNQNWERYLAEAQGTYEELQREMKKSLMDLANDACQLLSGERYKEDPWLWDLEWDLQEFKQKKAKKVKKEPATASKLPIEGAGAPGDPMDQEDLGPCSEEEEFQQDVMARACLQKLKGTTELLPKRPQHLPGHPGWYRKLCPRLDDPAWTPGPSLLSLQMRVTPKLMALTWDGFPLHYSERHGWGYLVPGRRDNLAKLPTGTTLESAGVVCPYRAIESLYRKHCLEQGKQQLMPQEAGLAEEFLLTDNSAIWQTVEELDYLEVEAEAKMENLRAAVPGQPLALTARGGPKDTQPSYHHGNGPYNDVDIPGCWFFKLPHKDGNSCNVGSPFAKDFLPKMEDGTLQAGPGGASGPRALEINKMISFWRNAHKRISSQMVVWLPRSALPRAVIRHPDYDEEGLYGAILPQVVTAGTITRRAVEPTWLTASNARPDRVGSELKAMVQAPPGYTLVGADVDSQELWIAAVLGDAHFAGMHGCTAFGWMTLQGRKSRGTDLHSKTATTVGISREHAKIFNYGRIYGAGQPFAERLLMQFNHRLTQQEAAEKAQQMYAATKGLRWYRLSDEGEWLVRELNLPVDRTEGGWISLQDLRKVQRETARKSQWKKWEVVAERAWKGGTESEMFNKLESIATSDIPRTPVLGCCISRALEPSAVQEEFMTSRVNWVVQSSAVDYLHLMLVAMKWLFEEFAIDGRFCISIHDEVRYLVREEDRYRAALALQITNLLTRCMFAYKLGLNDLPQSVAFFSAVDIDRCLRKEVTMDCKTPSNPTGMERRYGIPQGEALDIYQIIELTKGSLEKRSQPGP

Test [1] addresses Myc-tagged TTC3ΔTPR (deletion of the TPR motifs) (human) (UniProt P53804). Briefly: co-IP; 293T cells co-transfected; lysed in RIPA buffer; TTC3 immunoprecipitated by Myc antibody (9E10), POLG or Hsp70 by Flag antibody (M2); Protein G beads, 4°C; immunoblot. (In general: Immunoblotting shows a protein as a band on a membrane.)
The target in test [2] is T1, Myc-TTC3(1∼650aa) (human) (UniProt P53804).
T1 sequence: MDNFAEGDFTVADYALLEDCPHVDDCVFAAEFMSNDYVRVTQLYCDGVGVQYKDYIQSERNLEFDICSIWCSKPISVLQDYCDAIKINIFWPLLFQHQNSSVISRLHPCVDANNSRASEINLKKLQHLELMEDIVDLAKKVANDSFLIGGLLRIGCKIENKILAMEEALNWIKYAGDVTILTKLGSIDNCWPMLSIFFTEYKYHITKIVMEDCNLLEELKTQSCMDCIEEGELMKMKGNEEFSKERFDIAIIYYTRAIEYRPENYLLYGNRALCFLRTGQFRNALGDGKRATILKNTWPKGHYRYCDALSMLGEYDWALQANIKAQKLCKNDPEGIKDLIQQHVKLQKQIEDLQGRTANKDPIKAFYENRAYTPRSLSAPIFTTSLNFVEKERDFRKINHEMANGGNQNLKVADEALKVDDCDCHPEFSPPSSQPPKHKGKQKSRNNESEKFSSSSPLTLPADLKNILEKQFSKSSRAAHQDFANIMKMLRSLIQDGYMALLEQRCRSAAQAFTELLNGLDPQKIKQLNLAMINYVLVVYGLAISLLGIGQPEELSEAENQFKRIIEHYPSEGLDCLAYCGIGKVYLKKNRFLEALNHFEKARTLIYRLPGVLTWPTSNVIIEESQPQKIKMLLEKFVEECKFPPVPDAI
Described as above.

These are yes or no findings as the source states them, for the method shown. Binding seen in cells or lysates may run through a third protein. Binding can be weak; no strength is given. For some assays here: Tags and fused reporters may be left off the sequences shown.

In the case of “3xFlag-tagged full-length POLG (p3xFLAG-CMV10) (from UniProt P54098 1-1239)”, the binding entry in test [1] is listed as “binds”. For Flag-Hsp70, the binding entry in test [2] is reported as “binds”.
